The list shows a part of the results. Only hits are listed; about a third recur on repeated control peptides.

The chains behind the UniProt entries cited, without tags or fusion partners.
ATP6V1H, Q9UI12, UniProt Q9UI12, whole entry: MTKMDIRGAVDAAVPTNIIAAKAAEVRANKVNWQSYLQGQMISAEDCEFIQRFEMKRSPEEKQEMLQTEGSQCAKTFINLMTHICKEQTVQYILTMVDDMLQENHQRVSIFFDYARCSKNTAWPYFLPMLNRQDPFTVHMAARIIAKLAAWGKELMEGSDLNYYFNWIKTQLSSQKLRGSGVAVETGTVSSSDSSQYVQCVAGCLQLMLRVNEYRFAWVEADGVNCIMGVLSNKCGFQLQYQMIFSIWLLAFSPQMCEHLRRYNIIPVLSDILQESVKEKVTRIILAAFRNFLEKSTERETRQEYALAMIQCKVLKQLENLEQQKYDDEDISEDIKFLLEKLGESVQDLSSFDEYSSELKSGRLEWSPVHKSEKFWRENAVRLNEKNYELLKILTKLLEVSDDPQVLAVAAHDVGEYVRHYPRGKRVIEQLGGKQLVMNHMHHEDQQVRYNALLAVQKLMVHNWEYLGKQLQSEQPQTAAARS
HBA1, P69905, UniProt P69905, whole entry: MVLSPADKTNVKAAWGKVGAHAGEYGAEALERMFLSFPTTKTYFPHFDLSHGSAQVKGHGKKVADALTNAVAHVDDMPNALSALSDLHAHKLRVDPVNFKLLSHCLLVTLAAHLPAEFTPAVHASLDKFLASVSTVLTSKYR
INTS7, Q9NVH2, UniProt Q9NVH2, whole entry: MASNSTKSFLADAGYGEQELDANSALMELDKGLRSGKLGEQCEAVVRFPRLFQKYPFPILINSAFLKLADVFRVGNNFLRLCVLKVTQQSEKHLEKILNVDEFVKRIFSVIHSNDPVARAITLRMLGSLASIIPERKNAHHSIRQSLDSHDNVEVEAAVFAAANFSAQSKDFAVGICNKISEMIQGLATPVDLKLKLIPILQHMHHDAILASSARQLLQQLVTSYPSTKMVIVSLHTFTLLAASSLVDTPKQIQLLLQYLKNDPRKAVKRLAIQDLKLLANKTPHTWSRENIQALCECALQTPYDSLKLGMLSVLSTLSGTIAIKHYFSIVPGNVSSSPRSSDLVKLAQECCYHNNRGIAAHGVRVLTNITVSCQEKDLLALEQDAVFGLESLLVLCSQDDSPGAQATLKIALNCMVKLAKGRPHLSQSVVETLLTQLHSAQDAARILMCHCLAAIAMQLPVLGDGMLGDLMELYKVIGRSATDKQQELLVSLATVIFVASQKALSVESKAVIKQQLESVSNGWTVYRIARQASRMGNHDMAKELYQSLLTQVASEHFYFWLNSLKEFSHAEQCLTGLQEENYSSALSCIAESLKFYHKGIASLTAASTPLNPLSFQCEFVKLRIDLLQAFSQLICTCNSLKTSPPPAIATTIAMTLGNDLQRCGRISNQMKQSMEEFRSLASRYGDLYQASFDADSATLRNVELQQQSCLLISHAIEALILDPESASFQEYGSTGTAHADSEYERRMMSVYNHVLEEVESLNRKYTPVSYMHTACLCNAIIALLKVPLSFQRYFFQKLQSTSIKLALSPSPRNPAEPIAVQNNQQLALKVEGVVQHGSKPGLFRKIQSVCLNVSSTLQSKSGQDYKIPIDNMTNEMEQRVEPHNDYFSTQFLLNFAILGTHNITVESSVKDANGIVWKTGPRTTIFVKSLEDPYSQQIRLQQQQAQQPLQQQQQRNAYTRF
TOMM70, O94826, UniProt O94826, whole entry: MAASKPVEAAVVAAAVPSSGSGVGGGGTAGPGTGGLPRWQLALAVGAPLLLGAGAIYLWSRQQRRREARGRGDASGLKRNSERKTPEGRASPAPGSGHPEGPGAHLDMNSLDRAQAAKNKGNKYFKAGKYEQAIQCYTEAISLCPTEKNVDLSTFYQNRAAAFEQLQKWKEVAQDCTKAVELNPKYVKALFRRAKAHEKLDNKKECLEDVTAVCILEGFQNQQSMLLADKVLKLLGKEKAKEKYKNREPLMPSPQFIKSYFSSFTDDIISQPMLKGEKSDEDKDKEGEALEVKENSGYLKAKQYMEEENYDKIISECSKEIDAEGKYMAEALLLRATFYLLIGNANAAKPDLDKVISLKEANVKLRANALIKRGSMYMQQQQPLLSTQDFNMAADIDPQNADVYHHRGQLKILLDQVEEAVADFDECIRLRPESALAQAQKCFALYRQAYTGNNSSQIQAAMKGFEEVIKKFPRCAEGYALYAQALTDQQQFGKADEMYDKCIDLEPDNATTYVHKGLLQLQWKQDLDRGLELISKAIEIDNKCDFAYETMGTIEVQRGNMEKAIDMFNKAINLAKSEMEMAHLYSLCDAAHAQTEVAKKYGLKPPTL

Common to all, as to assay: PRISMA enrichment of interactor (LFQ) in peptide spot vs all other peptide spots (log2 fold change); higher = stronger / more specific binding of the interactor to the peptide
Assay [1] deals with ACAA2, P42765. How it is done:
(§1)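 PRISMA: 15-aa overlapping tiles (offset 8 aa) of 60 microproteins, plus SOS1/GLUT1 control peptides, were spot-synthesized on cellulose membranes in triplicate. Membranes were incubated with benzonase-treated HEK293T lysate, and bound proteins were identified by LC-MS/MS with LFQ. Enrichment is the log2 fold change of each protein in one spot versus all other spots. Only interactors passing the significance cutoff are listed.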

For assay [2], the target named is ARIH1, Q9Y4X5. As for the experimental part: as §1
Assay [3] deals with ASS1, P00966. As for the experimental part:
as §1

Assay [4] addresses ATP6V1H, Q9UI12. How it is done:
as §1

Assay [5] deals with CSNK2A2, P19784. How it is done: as §1
In assay [6] the target is DAP3, P51398. As for the experimental part:
as §1

Assay [7] concerns the target ERLIN1, O75477. As for the experimental part: as §1
In assay [8] the target is GPAT4, Q86UL3. How it is done: as §1
Assay [9] has as its target GPATCH4, Q5T3I0. How it is done: as §1
For assay [10], the target named is GPBP1, Q86WP2. As for the experimental part: as §1
Assay [11] deals with GTF2I, P78347. How it is done: as §1
In assay [12] the target is HBA1, P69905. As for the experimental part: as §1
The target in assay [13] is HBB, P68871. How it is done:
as §1

Assay [14] deals with HCFC1, P51610. As for the experimental part:
as §1

Assay [15] concerns the target HERC2, O95714. How it is done:
as §1

Assay [16] addresses HPD, P32754. How it is done:
as §1

Assay [17] addresses INTS7, Q9NVH2. As for the experimental part: as §1
In assay [18] the target is KIF22, Q14807. As for the experimental part:
as §1

The target in assay [19] is LSM4, Q9Y4Z0. As for the experimental part: as §1
Assay [20] concerns the target MRPL44, Q9H9J2. How it is done: as §1
Assay [21] has as its target MRPS21, P82921. As for the experimental part:
as §1

In assay [22] the target is NUP155, O75694. As for the experimental part:
as §1

For assay [23], the target named is NUSAP1, Q9BXS6. How it is done:
as §1

The target of assay [24] is PDAP1, Q13442. How it is done:
as §1

The target in assay [25] is PRMT3, O60678. As for the experimental part: as §1
The target in assay [26] is RPF2, Q9H7B2. As for the experimental part:
as §1

The target of assay [27] is SMU1, Q2TAY7. How it is done: as §1
Assay [28] concerns the target TIA1, P31483. As for the experimental part:
as §1

The target in assay [29] is TRPT1, Q86TN4. As for the experimental part:
as §1

Assay [30] addresses BZW2, Q9Y6E2. As for the experimental part: as §1
In assay [31] the target is DHTKD1, Q96HY7. How it is done: as §1
Assay [32] has as its target SEC24C, P53992. As for the experimental part:
as §1

The target of assay [33] is SLC30A7, Q8NEW0. How it is done:
as §1

The target in assay [34] is SND1, Q7KZF4. As for the experimental part:
as §1

The target in assay [35] is SPATS2, Q86XZ4. How it is done: as §1
Assay [36] has as its target TOMM70, O94826. As for the experimental part:
as §1

The target in assay [37] is TSPYL2, Q9H2G4. How it is done:
as §1

Assay [38] has as its target UBR4, Q5T4S7. How it is done: as §1
Assay [39] has as its target XRCC5, P13010. How it is done:
as §1

The target in assay [40] is ZBTB10, Q96DT7. As for the experimental part:
as §1

Assay [41] has as its target ZNF22, P17026. As for the experimental part:
as §1

Assay [42] has as its target NCDN, Q9UBB6. As for the experimental part:
as §1

The target of assay [43] is RAVER1, Q8IY67. How it is done:
as §1

The target of assay [44] is SHROOM3, Q8TF72. How it is done: as §1
Assay [45] addresses UQCRFS1, P47985. As for the experimental part: as §1

With VMVPLVGLIHLGWYR [MKKS], the “PRISMA enrichment of interactor (log2)” value in assay [1] amounted to 5.7; in assay [2], 4.39; in assay [3], 4.43; in assay [4], 4.78; in [5], 6.12; in assay [6], 5.96. Also, the “PRISMA enrichment of interactor (log2)” value in [7] amounted to 6.35; in assay [8], 4.47; in assay [9], 4.87; in assay [10], 3.84; in [11], 5.65; in assay [12] it was 3.98. In addition, the “PRISMA enrichment of interactor (log2)” value was found to be 4.42 in [13]; 5.49 in assay [14]; 5.9 in [15]; 3.83 in [16]; 4.98 in assay [17]; 12.5 in assay [18]. The “PRISMA enrichment of interactor (log2)” value came to 5.29 in assay [19]; 6.07 in assay [20]; 5.13 in assay [21]; 4.89 in assay [22]; 5.98 in assay [23]; 5.63 in [24]. The “PRISMA enrichment of interactor (log2)” value in assay [25] was 4.79; in assay [26], 4.31; in assay [27] it was 4.48; in assay [28], 4.27; in [29], 3.86.
AAEFYSRGRKQRRPS [LINC01560]: the entries for the “PRISMA enrichment of interactor (log2)” value in assay [1], in assay [30] and in [31] were 4.57, 5.89 and 9.15, respectively.
Turning to CTQPSQQGVCHSRLK [RP11-140K17.3], the “PRISMA enrichment of interactor (log2)” value was 4.81 in [32]; 5.98 in assay [33]; 4.86 in assay [34]; 3.98 in assay [35]; 3.95 in [28]; 5.16 in assay [36]. Further, the “PRISMA enrichment of interactor (log2)” value stood at 4.81 in [37]; 4.73 in [38]; 7.31 in assay [39]; 5.41 in [40]; 4.45 in assay [41].
With FLKYVLLFFSLHVEH [HAND2-AS1], the “PRISMA enrichment of interactor (log2)” value in [1] amounted to 4.31; in [17] it was 6.72; in assay [42], 5.74; in assay [43], 5.12; in assay [44] it was 8.8; in [45], 5.53.
